# How the values were obtained:
# [1] = system: GABAAR on immortalized mouse microglia; assay: Automated patch clamp, immortalized mouse microglia; format: cell-based; settings: −80 mV, read-out: EC50 of current response
# [2] = system: GABAAR on HMC3 human microglia cells; settings: read-out: EC50 of current response, patch clamped at −80 mV
# [3] = system: GABAAR on immortalized human microglia; assay: Automated patch clamp, immortalized human microglia; format: cell-based; settings: −80 mV, read-out: EC50 of current response
structure (smiles),measurement,setting,value
NCCCC(=O)O [GABA],EC50,[1],260 nM
same,EC50,[2],270 nM
same,EC50,[3],1940 nM

# Reference: patent publication US20240279232A1, “USE OF SUBSTITUTED 5-(4-METHYL-6-PHENYL-4H-BENZO[F]IMIDAZO[1,5-A][1,4] DIAZEPIN-3-YL)-1,2,4-OXADIAZOLES IN THE TREATMENT OF INFLAMMATORY CONDITIONS” (priority 2021, published 2024)
